Measured values: the supplement of paper PMC7666118
Some of the results follow.

Sequences of proteins named here, by UniProt entry; tags and fusion partners are left off. A change or cut given only in a name is not applied to a line headed by its entry.
UniProt Q14444, whole entry: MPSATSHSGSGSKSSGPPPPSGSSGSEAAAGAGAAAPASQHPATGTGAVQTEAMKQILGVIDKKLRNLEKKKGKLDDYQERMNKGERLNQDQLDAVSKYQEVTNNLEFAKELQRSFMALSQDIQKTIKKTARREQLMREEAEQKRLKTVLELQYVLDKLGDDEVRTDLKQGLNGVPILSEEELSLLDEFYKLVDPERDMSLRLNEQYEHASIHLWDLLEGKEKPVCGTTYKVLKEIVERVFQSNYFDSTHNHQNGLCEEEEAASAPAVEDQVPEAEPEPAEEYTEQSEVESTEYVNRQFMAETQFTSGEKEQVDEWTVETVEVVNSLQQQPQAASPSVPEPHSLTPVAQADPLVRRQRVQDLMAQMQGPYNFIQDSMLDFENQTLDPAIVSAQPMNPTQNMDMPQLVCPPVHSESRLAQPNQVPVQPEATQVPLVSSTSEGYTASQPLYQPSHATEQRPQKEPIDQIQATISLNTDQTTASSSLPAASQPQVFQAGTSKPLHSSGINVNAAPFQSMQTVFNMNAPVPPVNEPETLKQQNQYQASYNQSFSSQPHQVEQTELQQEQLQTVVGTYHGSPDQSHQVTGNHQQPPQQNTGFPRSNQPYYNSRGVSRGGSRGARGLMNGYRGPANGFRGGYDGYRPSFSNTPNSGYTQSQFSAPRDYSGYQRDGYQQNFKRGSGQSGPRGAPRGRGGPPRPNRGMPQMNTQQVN
UniProt Q15031: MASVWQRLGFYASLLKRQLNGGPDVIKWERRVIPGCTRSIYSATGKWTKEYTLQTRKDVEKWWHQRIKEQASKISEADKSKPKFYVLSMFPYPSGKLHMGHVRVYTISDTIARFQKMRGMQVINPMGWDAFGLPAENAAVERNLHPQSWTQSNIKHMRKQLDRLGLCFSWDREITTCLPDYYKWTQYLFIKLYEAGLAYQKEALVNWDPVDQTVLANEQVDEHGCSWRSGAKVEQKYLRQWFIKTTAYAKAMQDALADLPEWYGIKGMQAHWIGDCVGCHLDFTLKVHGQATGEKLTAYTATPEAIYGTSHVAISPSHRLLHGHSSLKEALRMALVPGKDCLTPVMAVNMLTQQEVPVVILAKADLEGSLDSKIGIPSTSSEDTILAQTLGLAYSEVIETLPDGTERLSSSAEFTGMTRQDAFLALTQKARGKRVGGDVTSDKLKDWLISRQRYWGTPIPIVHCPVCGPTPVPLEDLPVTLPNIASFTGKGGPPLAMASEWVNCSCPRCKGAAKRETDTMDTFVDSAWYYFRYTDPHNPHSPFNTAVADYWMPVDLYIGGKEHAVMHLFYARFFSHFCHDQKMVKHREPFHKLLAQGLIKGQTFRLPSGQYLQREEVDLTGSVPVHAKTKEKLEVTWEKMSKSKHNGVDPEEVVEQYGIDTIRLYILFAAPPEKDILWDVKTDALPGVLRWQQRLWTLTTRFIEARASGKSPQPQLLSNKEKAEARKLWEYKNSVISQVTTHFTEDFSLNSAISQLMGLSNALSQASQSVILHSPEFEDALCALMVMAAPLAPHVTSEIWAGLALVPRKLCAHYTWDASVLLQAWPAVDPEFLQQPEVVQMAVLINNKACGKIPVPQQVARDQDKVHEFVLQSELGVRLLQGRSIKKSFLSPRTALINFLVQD
UniProt P33992: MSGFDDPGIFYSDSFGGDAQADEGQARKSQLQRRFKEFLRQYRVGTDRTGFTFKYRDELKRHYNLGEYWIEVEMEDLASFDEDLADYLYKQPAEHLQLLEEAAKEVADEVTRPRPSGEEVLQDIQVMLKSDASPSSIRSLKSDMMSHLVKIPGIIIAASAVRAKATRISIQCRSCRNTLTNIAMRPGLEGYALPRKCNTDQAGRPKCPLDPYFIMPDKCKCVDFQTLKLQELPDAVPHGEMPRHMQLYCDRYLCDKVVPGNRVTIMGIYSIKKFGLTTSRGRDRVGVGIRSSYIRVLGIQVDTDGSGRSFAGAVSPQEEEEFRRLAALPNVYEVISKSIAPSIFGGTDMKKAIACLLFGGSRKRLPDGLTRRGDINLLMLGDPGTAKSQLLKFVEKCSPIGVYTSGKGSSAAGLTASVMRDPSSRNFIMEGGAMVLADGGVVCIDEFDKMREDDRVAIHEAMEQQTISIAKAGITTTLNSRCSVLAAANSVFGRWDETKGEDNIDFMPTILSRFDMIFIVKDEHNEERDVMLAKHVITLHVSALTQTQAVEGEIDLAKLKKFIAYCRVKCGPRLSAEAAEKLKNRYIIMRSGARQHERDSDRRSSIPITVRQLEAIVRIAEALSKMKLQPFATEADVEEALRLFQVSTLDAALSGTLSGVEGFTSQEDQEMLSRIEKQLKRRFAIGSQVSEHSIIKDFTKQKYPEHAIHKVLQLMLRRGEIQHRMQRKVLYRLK
UniProt P49137, whole entry, looked up: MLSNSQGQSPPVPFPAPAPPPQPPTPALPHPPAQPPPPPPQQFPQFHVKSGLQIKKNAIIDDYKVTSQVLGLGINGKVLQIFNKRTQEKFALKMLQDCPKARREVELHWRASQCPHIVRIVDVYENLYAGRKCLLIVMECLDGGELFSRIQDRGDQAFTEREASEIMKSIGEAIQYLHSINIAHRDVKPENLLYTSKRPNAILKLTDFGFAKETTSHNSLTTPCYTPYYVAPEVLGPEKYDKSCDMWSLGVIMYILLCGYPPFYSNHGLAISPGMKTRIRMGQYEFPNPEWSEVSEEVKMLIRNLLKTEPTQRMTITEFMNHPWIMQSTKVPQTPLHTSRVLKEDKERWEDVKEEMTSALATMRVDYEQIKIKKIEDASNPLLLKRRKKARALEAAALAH
UniProt Q969R5, whole entry: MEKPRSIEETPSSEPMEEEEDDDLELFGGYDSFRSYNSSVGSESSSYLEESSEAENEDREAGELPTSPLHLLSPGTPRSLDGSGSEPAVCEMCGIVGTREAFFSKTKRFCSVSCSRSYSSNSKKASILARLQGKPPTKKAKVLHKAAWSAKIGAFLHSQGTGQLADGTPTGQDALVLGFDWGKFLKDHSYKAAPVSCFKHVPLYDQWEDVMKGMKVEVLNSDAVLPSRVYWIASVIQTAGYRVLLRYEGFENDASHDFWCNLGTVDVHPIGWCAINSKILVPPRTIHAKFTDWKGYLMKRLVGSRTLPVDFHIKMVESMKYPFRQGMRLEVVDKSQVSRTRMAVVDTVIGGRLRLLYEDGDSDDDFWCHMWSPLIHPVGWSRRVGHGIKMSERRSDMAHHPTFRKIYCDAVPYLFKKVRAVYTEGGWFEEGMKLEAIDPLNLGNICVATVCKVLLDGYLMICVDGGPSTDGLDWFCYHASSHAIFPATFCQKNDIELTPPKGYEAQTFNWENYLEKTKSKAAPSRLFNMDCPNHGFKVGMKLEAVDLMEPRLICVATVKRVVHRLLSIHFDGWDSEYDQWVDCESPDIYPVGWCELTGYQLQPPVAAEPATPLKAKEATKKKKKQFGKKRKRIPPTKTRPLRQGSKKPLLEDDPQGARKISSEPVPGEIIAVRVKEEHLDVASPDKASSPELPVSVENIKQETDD
UniProt P53778: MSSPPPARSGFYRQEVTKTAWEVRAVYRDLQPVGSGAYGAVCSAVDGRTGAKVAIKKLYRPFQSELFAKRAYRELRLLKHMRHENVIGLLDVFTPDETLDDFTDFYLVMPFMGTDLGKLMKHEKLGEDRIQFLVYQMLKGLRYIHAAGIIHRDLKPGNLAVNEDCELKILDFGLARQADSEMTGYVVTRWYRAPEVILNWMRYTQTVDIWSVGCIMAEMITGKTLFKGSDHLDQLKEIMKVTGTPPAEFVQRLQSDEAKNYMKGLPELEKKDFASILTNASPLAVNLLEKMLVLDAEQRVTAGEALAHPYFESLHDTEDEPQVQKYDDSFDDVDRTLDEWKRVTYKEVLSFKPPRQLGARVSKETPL
UniProt Q9BPZ7, whole entry: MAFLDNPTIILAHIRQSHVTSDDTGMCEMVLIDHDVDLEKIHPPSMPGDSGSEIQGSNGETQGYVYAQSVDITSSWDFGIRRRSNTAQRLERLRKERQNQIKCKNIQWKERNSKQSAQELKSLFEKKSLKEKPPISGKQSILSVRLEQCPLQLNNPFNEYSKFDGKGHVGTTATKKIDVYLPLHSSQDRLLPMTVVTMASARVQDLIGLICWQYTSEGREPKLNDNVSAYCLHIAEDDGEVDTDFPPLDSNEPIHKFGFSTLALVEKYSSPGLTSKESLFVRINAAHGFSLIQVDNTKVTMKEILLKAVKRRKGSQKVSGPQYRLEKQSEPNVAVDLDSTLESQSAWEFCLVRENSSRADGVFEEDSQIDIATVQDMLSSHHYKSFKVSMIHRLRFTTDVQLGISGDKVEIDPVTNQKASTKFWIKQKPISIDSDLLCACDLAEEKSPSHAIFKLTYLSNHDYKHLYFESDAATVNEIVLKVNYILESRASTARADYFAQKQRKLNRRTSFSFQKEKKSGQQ
UniProt P33993, whole entry: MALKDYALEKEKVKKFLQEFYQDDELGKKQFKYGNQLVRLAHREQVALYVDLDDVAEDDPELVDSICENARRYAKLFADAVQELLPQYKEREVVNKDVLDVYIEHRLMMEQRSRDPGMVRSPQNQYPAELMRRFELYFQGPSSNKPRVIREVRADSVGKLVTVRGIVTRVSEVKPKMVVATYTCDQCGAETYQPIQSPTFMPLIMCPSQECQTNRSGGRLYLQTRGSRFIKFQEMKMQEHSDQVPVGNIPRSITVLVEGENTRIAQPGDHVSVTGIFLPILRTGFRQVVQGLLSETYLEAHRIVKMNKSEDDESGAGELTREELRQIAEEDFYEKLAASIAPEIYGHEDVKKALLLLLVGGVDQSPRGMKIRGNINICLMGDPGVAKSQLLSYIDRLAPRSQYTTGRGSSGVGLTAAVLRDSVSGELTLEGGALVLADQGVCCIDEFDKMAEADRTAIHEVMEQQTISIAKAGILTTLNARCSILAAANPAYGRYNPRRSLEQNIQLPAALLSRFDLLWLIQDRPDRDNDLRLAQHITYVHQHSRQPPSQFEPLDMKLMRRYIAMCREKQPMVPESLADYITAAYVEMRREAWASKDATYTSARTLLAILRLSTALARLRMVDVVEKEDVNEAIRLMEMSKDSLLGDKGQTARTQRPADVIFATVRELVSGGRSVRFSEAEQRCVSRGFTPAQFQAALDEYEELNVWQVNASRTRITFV
UniProt Q8NI22: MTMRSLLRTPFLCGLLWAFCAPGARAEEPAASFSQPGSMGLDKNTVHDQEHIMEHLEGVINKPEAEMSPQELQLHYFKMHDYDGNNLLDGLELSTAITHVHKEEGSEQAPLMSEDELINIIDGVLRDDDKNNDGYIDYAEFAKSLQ
UniProt Q07820, whole entry: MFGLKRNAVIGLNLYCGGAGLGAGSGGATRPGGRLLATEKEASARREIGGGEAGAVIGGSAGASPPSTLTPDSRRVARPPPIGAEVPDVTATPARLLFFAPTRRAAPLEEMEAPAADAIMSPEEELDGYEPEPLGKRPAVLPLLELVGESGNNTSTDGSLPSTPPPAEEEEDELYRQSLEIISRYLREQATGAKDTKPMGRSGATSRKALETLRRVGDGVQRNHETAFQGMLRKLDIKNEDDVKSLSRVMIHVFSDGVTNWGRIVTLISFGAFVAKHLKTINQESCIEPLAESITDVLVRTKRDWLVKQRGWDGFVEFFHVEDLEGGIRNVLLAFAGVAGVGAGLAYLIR
UniProt Q9H9P8: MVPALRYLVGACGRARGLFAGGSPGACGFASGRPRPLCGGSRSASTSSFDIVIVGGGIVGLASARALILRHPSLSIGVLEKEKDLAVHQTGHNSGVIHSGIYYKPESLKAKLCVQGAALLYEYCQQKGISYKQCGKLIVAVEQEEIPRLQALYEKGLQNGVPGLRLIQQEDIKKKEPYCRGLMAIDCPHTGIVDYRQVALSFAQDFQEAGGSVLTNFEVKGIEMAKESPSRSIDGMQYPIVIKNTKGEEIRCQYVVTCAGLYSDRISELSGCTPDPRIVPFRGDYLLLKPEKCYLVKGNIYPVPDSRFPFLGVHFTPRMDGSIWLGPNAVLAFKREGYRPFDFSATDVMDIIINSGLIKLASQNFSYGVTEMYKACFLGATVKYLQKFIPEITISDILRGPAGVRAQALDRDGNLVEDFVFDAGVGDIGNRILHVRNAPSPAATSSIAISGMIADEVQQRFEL
UniProt Q9UHA4, whole entry: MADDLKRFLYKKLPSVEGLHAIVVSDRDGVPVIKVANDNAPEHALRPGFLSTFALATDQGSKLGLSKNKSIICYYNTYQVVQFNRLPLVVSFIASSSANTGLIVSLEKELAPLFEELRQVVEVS
UniProt P45983: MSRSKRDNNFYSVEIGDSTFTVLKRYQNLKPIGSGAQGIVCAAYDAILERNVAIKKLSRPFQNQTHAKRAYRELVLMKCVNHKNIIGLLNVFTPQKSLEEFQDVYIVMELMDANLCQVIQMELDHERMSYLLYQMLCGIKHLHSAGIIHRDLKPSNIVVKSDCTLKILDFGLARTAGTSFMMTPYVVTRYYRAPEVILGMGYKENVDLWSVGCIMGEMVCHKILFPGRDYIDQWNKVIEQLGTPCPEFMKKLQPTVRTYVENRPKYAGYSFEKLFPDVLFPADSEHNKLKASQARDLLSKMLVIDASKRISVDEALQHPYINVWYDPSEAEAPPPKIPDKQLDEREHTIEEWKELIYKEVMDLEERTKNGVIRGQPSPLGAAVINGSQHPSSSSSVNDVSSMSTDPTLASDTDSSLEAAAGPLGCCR

compound: COc1ccc(Cn2ccc3cc(C)c(C(=O)NO)cc32)cc1; experiment: dose-dependent thermal stabilisation call (2D-TPP, DLPTP, 10% FDR) (binary (1 = stabilised)); higher = stabilised by the compound; settings: system: HL-60 intact cells; concentration range 0.04-10 µM
Experimental: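 2D thermal proteome profiling in intact HL-60 cells treated with BRD-3811 (0, 0.04, 0.29, 2, 10 uM) for 90 min at 37 C, then heated 3 min at one of 12 temperatures (42-63.9 C). Soluble protein was quantified by TMT10 MS. The value is the DLPTP call of the paper: dose-dependent thermal stabilisation over all temperatures at 10% FDR (F-test of a dose-response against a flat model); one experiment, one call per tested protein.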

| Target | dose-dependent thermal stabilisation call |
| --- | --- |
| M11S1 (UniProt Q14444) | inactive: 0 |
| LAMC1 (UniProt P11047) | inactive: 0 |
| LRRFIP2 (UniProt Q9Y608) | inactive: 0 |
| LARS2 (UniProt Q15031) | inactive: 0 |
| LMAN1 (UniProt P49257) | inactive: 0 |
| MARK3 (UniProt P27448) | inactive: 0 |
| MCM5 (UniProt P33992) | inactive: 0 |
| LIPA (UniProt P38571) | inactive: 0 |
| MAPKAPK2 (UniProt P49137) | inactive: 0 |
| MATR3 (UniProt P43243) | inactive: 0 |
| LOC284889 | inactive: 0 |
| L3MBTL2 (UniProt Q969R5) | inactive: 0 |
| MCEE (UniProt Q96PE7) | inactive: 0 |
| MAPK12 (UniProt P53778) | inactive: 0 |
| MAPKAP1 (UniProt Q9BPZ7) | inactive: 0 |
| MAN1C1 (UniProt Q9NR34) | inactive: 0 |
| LIMS1 (UniProt P48059) | inactive: 0 |
| MCM7 (UniProt P33993) | inactive: 0 |

| Target | dose-dependent thermal stabilisation call |
| --- | --- |
| MAGT1 (UniProt Q9H0U3) | inactive: 0 |
| MDN1 (UniProt Q9NU22) | inactive: 0 |
| MAPK1 (UniProt P28482) | active: 1 |
| LSM14B (UniProt Q9BX40) | inactive: 0 |
| MCFD2 (UniProt Q8NI22) | inactive: 0 |
| LAP3 (UniProt P28838) | active: 1 |
| LRP8 (UniProt Q14114) | inactive: 0 |
| LDHA (UniProt P00338) | inactive: 0 |
| LSM6 (UniProt P62312) | inactive: 0 |
| MCL1 (UniProt Q07820) | inactive: 0 |
| LPCAT3 (UniProt Q6P1A2) | inactive: 0 |
| MBTD1 (UniProt Q05BQ5) | inactive: 0 |
| L2HGDH (UniProt Q9H9P8) | active: 1 |
| MAPKSP1 (UniProt Q9UHA4) | inactive: 0 |
| LOC221710 | inactive: 0 |
| LDHB (UniProt P07195) | inactive: 0 |
| MAPK8 (UniProt P45983) | inactive: 0 |
| LRCH4 (UniProt O75427) | inactive: 0 |

Pulled one by one from the entries so far:

| Target | dose-dependent thermal stabilisation call |
| --- | --- |
| MCL1 (UniProt Q07820) | inactive: 0 |
| MAPK1 (UniProt P28482) | active: 1 |
